Among all 140,000 compounds or so, about 4,300 (3.1%) were called active. The shares of active, inactive and inconclusive entries below differ from those in the screen.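 Rule for the calls: active = readout at or below -70, meaning at least 70% loss of cells showing the perinucleolar compartment, a nuclear body marking cancer cells; inconclusive = readout between -30 and a set limit; inactive = the rest.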
Assay: High Content Assay for Compounds that inhibit the Assembly of the Perinucleolar Compartment;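 note: plate controls were DMSO wells for no effect and camptothecin positive control wells for full effect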
Settings: PC3M PTB-GFP, PNC prevalence imaging, 16 h; at 10 µM; stronger effect = lower value
Outline: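 PC3M cells stably expressing PTB-GFP, 750–1000 cells/well, treated 16 h at 37 °C with compound (23 nl of library stock), in duplicate. After paraformaldehyde fixation and Hoechst stain, imaged at 20x; PNC prevalence scored by image analysis.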

Compound | activity change (PNC), negative = inhibition
COc1ccc2[nH]c(=O)c(CN(Cc3ccc(C)cc3)Cc3nnnn3CC3CCCO3)cc2c1 (stereo not drawn) | inactive: 5%
COc1ccc(N(Cc2ccco2)C(=O)c2ccccc2F)cc1OC | inactive: -0.619%
CC1(C)CC(=O)C(C=NCCCO)=C(O)C1 | active: -86.9%
CC1CCN(c2nc3ccc(C(=O)N4CCN(Cc5ccc6c(c5)OCO6)CC4)cc3s2)CC1 | inactive: -18.8%
COc1ccc2nc(SCC(=O)Nc3cc(C)on3)[nH]c2c1 | active: -97.1%
CC(=O)N1CCc2cc(S(=O)(=O)NCCCOC(C)C)ccc21 | inconclusive: -47.1%
COc1ccc(NCc2n[nH]nc2-c2ccccc2)cc1Cl | inconclusive: -30.5%
CSc1nccc(Oc2ccc(C#N)cc2)n1 | inactive: -10.5%
O=C(Nc1nccs1)c1ccc(Cl)c(S(=O)(=O)N2CCCCC2)c1 | inconclusive: -59.7%
CC(C)(C)C(=O)Nc1ncc(C(F)(F)F)cc1Cl | inconclusive: -49.8%
Cc1ccnc(NC(=O)c2sc3ccccc3c2Cl)c1 | inconclusive: -39.4%
Cn1c(=O)c2c(ncn2CC(=O)Nc2ccc(Cl)cc2Cl)n(C)c1=O | inconclusive: -48.3%
CCOc1cccc(=O)c2c(C)n(Cc3ccco3)c(C)c12 | active: -100%
CCC(C)(C(=O)NC1CCCC1)N(Cc1cccs1)C(=O)Cc1cccs1 (stereo not drawn) | inactive: 14.8%
O=C(NC(=S)NCc1ccccc1)C1CCCCC1 | inactive: 21.5%
CCn1cc(C(=O)NCC2CCCO2)c(=O)c2cc(S(=O)(=O)N3CCC(C)CC3)ccc21 (stereo not drawn) | inconclusive: -35.1%
Cn1c(CSCc2ccccc2Cl)nnc1SCC(=O)Nc1nccs1 | inconclusive: -36.3%
CCOC(=O)C1=C(C)Nc2ccccc2N=C1NC(=O)c1cccc(S(=O)(=O)N(C)C)c1 | inactive: -8.28%
COc1ccc(Nc2ccnc3ccccc23)cc1 | inconclusive: -30.9%
COc1cc(C)c(Cl)cc1S(=O)(=O)n1ccnc1C | inconclusive: -42.7%
CCOC(=O)C1CCN(Cc2ccc(F)c(F)c2)CC1 | active: -101%
Cc1cc2c(c(=O)n1C1CC1)C(c1cccc(Cl)c1)C(C#N)=C(N)O2 (stereo not drawn) | inconclusive: -65.5%
CCOC(=O)N1CCN(c2c(NCC3CCN(Cc4cccc(C)c4)CC3)c(=O)c2=O)CC1 | inconclusive: -65.2%
CC(C)(C)C1CCc2c(sc(NC(=O)c3cc(C4CC4)on3)c2C#N)C1 (stereo not drawn) | inconclusive: -53.8%

Compound | activity change (PNC), negative = inhibition
CCOC(=O)C1=C(C)Nc2nnnn2C1c1cccc(OC)c1OC (stereo not drawn) | inconclusive: -54.7%
CCOc1ccccc1N1CCN(Cc2ccc(Br)s2)CC1 | inconclusive: -58.9%
CCN(CC)CCNC(=O)C(=O)NCC1OCCN1S(=O)(=O)c1ccc([N+](=O)[O-])cc1 (stereo not drawn) | inconclusive: -33.7%
COc1ccc(C2C(C(=O)Nc3cc(C)on3)c3ccccc3C(=O)N2C)cc1OC (stereo not drawn) | inconclusive: -44.6%
CCCc1ncc(C(O)c2ccc(OC)cc2)n1C (stereo not drawn) | inconclusive: -31.8%
O=C(COC(=O)CCC(=O)c1cccs1)Nc1cccc(S(=O)(=O)N2CCOCC2)c1 | inconclusive: -48.3%
Cc1ccc(C(=O)CCC2CCCCC2=O)cc1 (stereo not drawn) | inconclusive: -56.7%
CC(C)OCCCNc1ncnc2c1[nH]c1ccccc12 | active: -96.5%
CCOC(=O)C1Cc2ccccc2CN1 (stereo not drawn) | inconclusive: -49.2%
CCOC(=O)CSc1nc2cc3c(cc2cc1C#N)OCO3 | active: -127%
Cc1ccccc1CNC1CCCCC1 | inconclusive: -32.5%
Cn1c(=O)c2c(ncn2CC(=O)Nc2ccccc2Sc2ccccc2)n(C)c1=O | inconclusive: -43.8%
Cc1cc(C(=O)N/N=C/c2sccc2C)no1 | inconclusive: -31.2%
CCCCCCCOc1ccc(OC(=O)c2ccncc2)cc1 | inactive: 10.7%
Cc1ccc2nc(SCC(=O)Nc3cc([N+](=O)[O-])ccc3F)[nH]c2c1 | inconclusive: -47%
Cc1ccc(C)c(Cc2c(C)nc3c(C(=O)NCc4ccc5c(c4)OCO5)cnn3c2C)c1 | active: -91.5%
COc1ccc(NC(=S)N(CCCN2CCOCC2)Cc2cn(C)c3ccccc23)cc1 | inconclusive: -58%
O=C(CN1CCC(n2nnc3cc(F)ccc32)CC1)Nc1ccc2c(c1)CCC2 | inconclusive: -41.3%
CC[n+]1c(-c2ccc(C)cc2)csc1Nc1c(C)n(C)n(-c2ccccc2)c1=O | inconclusive: -79.1%
Cc1ccc(OCC(=O)NCc2cccs2)cc1 | inconclusive: -39.6%
Cc1noc(C)c1S(=O)(=O)NCCCN1CCN(Cc2ccccc2)CC1 | inconclusive: -30.7%
COc1ccc(C2CNC(=O)C2)cc1OC1CCCC1 (stereo not drawn) | inconclusive: -45.3%
Cc1ccccc1C(=O)NN1CCOCC1 | inconclusive: -41.2%
Cc1ccc(N=Nc2c(N)nn(-c3ccccc3)c2N)cc1 | inconclusive: -51.9%

Looked up by structure from the list above:
Compound | activity change (PNC), negative = inhibition
CC(C)OCCCNc1ncnc2c1[nH]c1ccccc12 | active: -96.5%
CCOC(=O)CSc1nc2cc3c(cc2cc1C#N)OCO3 | active: -127%
CCCc1ncc(C(O)c2ccc(OC)cc2)n1C (stereo not drawn) | inconclusive: -31.8%
Cc1ccc(OCC(=O)NCc2cccs2)cc1 | inconclusive: -39.6%
CCOc1ccccc1N1CCN(Cc2ccc(Br)s2)CC1 | inconclusive: -58.9%

Some of the entries so far, as tab-separated lines:
Compound	activity change (PNC), negative = inhibition
COc1ccc(C2CNC(=O)C2)cc1OC1CCCC1 (stereo not drawn)	inconclusive: -45.3%
Cc1ccccc1C(=O)NN1CCOCC1	inconclusive: -41.2%

Further compounds follow.

Compound | activity change (PNC), negative = inhibition
O=C(O)c1ccccc1C(=O)Nc1ccccn1 | inactive: -14.3%
CC(CNS(=O)(=O)c1cc(Cl)ccc1Cl)CN(C)C (stereo not drawn) | inconclusive: -59.3%
CCn1c(SCC(=O)Nc2ccc(-c3nc4ccc(C)cc4s3)cc2)nnc1-c1ccccc1 | inactive: -9.83%
Cc1cccc(C)c1NC(=O)Nc1cccs1 | inconclusive: -39.5%
COc1ccc(Br)cc1CN(C)CC(=O)Nc1c(Cl)cccc1Cl | inconclusive: -70.9%
Nc1ccc(-c2nnc(-c3ccc(-c4ccccc4)cc3)o2)cc1 | inconclusive: -40.3%
O=C(Nc1cnc2ccccc2c1)c1ccncc1 | inconclusive: -53.6%
Cc1c(C(=O)N/N=C/c2ccc(Cl)cc2)[nH]c2ccc(Cl)cc12 | active: -112%
CC(OC(=O)c1cc(-c2cccnc2)nc2ccccc12)C(=O)Nc1ccc2ccccc2c1 (stereo not drawn) | inactive: 11.7%
C[C@H](N)c1nnc(SCC(=O)c2ccc(Cl)cc2)o1 | inactive: -15.7%
CS(=O)(=O)N1CCC(C(=O)Nc2ccc(F)cc2F)CC1 | inconclusive: -49.4%
CN1/C(=C/C(=O)c2nc(S(C)(=O)=O)ncc2Cl)C(C)(C)c2ccccc21 | inactive: 11.7%
CC(=O)C1=C(c2ccccc2)OC(N)=C(C#N)C1c1ccc(O)cc1 (stereo not drawn) | inconclusive: -45.8%
N#Cc1cn(-c2ccccc2)nc1-c1ccco1 | inactive: -21.1%
CCCOP(=O)(c1ccc(N(C)C)cc1)C(Nc1ccccc1)c1ccc(N(C)C)cc1 (stereo not drawn) | inconclusive: -36.8%
COc1cccc(CN2CCNC(=O)C2CC(=O)O)c1OC (stereo not drawn) | inconclusive: -35.9%
CC(C)CCn1cnc2c(sc3nc4c(cc32)CSC(C)(C)C4)c1=O | inconclusive: -39.2%
COc1ccc(N2CC(C(=O)Nc3ccc(N4CCOCC4)cc3)CC2=O)cc1 (stereo not drawn) | active: -113%
O=C(CCN1C(=O)c2ccccc2C1=O)N1CCN(Cc2ccccc2)CC1 | inconclusive: -67.4%
O=C(C(Cc1ccccc1)n1cccc1)N1CCN(c2ccccc2)CC1 (stereo not drawn) | inactive: -4.08%
COc1cc(C(=O)OCCNC(=O)c2ccncc2)cc(OC)c1OC | active: -111%
CC1CCCN(c2ccc(C(=O)Nc3ccc4c(c3)OCO4)cc2[N+](=O)[O-])C1 (stereo not drawn) | inconclusive: -52.5%
CCN(CC)S(=O)(=O)c1ccc(N2CCCC2)c(NS(=O)(=O)c2ccc([N+](=O)[O-])cc2)c1 | inactive: -8.64%
Cc1cnc(C(=O)Nc2ccc(F)cc2)cn1 | inactive: 34.7%

Compound | activity change (PNC), negative = inhibition
COC(=O)Cn1c(CN2CCN(c3ccc(F)cc3)CC2)nc2c1c(=O)n(C)c(=O)n2C | inconclusive: -43.3%
O=C(c1cccs1)n1nc(-c2ccco2)nc1SCc1ccccc1 | inactive: 20.2%
CCNC(=O)COC(=O)c1cc(-c2ccc(OC)cc2)nc2ccccc12 | inconclusive: -39.7%
O=C(COC(=O)c1cccnc1Cl)c1ccccc1 | inactive: 33.8%
Cc1cc(C(F)F)n2nc(C(=O)Nc3cccnc3Cl)nc2n1 | inactive: -14.5%
COc1cccc(CNC(=O)C(=O)NCC2CCCO2)c1 (stereo not drawn) | inactive: 0.2%
COc1cc(C(C[N+](=O)[O-])c2c(C)[nH]c3ccccc23)ccc1O (stereo not drawn) | inactive: -2.54%
O=C(Nc1ccccc1)/C(=C/c1ccc([N+](=O)[O-])cc1)NC(=O)c1ccccc1 | inconclusive: -44.6%
COc1ccc(OC)c(C2=NOC(C(=O)Nc3cc(C)nn3-c3ccccc3)C2)c1 (stereo not drawn) | inconclusive: -33.7%
Cc1cccc(-c2nsc(SCC(=O)N3CCCC3)n2)c1 | inactive: -0.0407%
COc1ccc(NC(=S)N/C(=N/CS(=O)(=O)c2ccccc2)c2ccccc2)cc1 | inconclusive: -30.5%
Cc1ncc(S(=O)(=O)c2ccccc2)c(-c2ccccc2)n1 | inactive: 26%
CCOc1cc(S(=O)(=O)N(CC)CC)ccc1Br | inconclusive: -31.1%
O=C1CC(c2ccco2)CC(O)=C1C=NCC1CCNCC1 (stereo not drawn) | inconclusive: -36.5%
Cc1sc(NC(=O)C2CCCO2)c(C#N)c1C (stereo not drawn) | active: -92.4%
COc1ccc(-c2nnc3c4ccccc4c(C)nn23)cc1 | active: -88.9%
O=C(O)c1ccccc1SCc1cn2ccccc2n1 | inconclusive: -34%
COc1ccccc1CC(=O)Nc1ccc(-c2noc(COc3cccc(C)c3C)n2)cc1 | inconclusive: -35.9%
COc1ccc(S(=O)(=O)N2CCSC2)cc1C | inconclusive: -47.4%
C/C(=N\NC(=O)CSc1nc2nc(C)cc(C)n2n1)c1ccccc1 | inconclusive: -77.9%
COc1ccc(-c2nc(S(=O)(=O)c3ccc(C)cc3)c(N3CCCC3)o2)cc1 | inactive: 33.7%
